From paper PMC4313936
Substitutions are numbered along the chain they refer to. These are yes or no findings as the source states them, for the method shown. In cells and extracts the contact can be indirect. Some binding calls cover weakened binding; strength is not graded here. Where a sequence is shown, tags or fusion partners need not be part of it.

Chains of the proteins cited; added tags and fusions are not shown.
UniProt Q13158: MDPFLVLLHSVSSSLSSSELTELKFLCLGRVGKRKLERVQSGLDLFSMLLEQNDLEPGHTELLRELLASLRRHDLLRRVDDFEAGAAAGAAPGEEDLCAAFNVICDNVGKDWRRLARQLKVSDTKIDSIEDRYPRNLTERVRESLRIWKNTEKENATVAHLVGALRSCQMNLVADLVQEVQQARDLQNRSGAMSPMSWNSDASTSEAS

Tests used:
[1] = target: T1, Flag-TRADD K229A (human) (UniProt Q15628); test: co-IP; Hek 293T cells co-transfected with Flag-TRADD and HA-FADD; 500 μg of cell extract on Flag-resin at 4°C; blot with HA-HRP or Flag-HRP
T1 sequence: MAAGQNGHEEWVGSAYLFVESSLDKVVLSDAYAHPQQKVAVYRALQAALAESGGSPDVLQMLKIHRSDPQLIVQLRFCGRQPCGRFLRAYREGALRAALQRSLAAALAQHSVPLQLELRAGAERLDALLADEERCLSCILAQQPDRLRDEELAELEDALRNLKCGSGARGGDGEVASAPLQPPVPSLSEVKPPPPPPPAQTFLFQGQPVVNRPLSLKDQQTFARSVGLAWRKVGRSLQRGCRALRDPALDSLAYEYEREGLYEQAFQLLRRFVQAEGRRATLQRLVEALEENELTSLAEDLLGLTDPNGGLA

[2] = target: T2, Flag-TRADD R235A (human) (UniProt Q15628); test: as above
T2 sequence: T1 sequence with A229K, R235A

[3] = target: T3, Flag-TRADD (human) (UniProt Q15628); test: as above
T3 sequence: T1 sequence with A229K

[4] = target: T4, Flag-TRADD R231A (human) (UniProt Q15628); test: as above
T4 sequence: T1 sequence with A229K, R231A

[5] = target: T5, GST-TRADD (human) (UniProt Q15628); test: pull-down; GST-TRADD proteins on beads incubated with ^35S-Met-labeled FADD from reticulocyte lysate, as described in ref. 44; SDS-PAGE and autoradiography; only the target purified
T5 sequence: T1 sequence with A229K

[6] = target: T6, GST-TRADD K229A (human) (UniProt Q15628); test: as above
T6 sequence: T1 sequence

Measured: binding

HA-FADD (from UniProt Q13158 1-208)
binds: [1] | [2] | [3] | [4]

^35S-Met-labeled FADD protein (from UniProt Q13158 1-208)
binds: [5] | [6]
